# In the supplement of paper PMC4604168 (melanoma cell lines):
# The other results are listed elsewhere or left out. Many values rest on one well or one pass, so single values are uncertain.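 The apoptosis fraction was the count of cleaved-PARP antibody-stained nuclei relative to all DNA-stained nuclei, imaged in 1,536-well plates. Screening doses were set so most cells survived, and baseline and induced cleaved-PARP levels vary greatly across cell lines.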
# Legend:
# Assay in all cases: cleaved PARP positive nuclei fraction relative to DMSO control; melanoma cells; higher = more apoptosis
# Conditions in all cases: library dose: low library concentration; 72 h
# MeWo = test system: MeWo
# RPMI7951 = test system: RPMI7951
# RVH-421 = test system: RVH-421
# SkMel28 = test system: SkMel28
# SkMel30 = test system: SkMel30
# SkMel5 = test system: SkMel5
# UACC257 = test system: UACC257
# UACC62 = test system: UACC62
# WM115 = test system: WM115
# WM1716 = test system: WM1716
# WM1745 = test system: WM1745
# WM3526 = test system: WM3526
# WM3619 = test system: WM3619
# WM451Lu = test system: WM451Lu
# MZ2-MEL = test system: MZ2-MEL
SMILES,cleaved PARP positive nuclei fraction (MeWo) [%],cleaved PARP positive nuclei fraction (RPMI7951) [%],cleaved PARP positive nuclei fraction (RVH-421) [%],cleaved PARP positive nuclei fraction (SkMel28) [%],cleaved PARP positive nuclei fraction (SkMel30) [%],cleaved PARP positive nuclei fraction (SkMel5) [%],cleaved PARP positive nuclei fraction (UACC257) [%],cleaved PARP positive nuclei fraction (UACC62) [%],cleaved PARP positive nuclei fraction (WM115) [%],cleaved PARP positive nuclei fraction (WM1716) [%],cleaved PARP positive nuclei fraction (WM1745) [%],cleaved PARP positive nuclei fraction (WM3526) [%],cleaved PARP positive nuclei fraction (WM3619) [%],cleaved PARP positive nuclei fraction (WM451Lu) [%],cleaved PARP positive nuclei fraction (MZ2-MEL) [%]
"NCC(=O)Nc1ccc(-n2nc(C(F)(F)F)cc2-c2ccc3c(ccc4ccccc43)c2)cc1 + COc1cc(N2CCC(N3CCN(C)CC3)CC2)ccc1Nc1ncc(Cl)c(Nc2ccccc2S(=O)(=O)C(C)C)n1 [NVP-TAE684] (first compound 1 µM, partner dose 0.08 µM)",238,84.2,117,416,92.5,114,267,104,222,17.7,121,123,81.3,156,
"O=C(O)C(=O)Nc1sc2c(c1C(=O)O)CCNC2 + CCCCCCCCCCCC1=C(O)C(=O)C=C(O)C1=O [Embelin] (first compound 1.66667 µM, partner dose 1.2 µM)",100,72.1,44.2,79.2,159,99.4,81.9,53.5,62.9,101,110,67,65.3,118,
"O=C1NC(=O)/C(=C/c2ccc(-c3ccc(F)cc3O)o2)S1 + CCCCCCCCCCCC1=C(O)C(=O)C=C(O)C1=O [Embelin] (first compound 1 µM, partner dose 1.2 µM)",105,405,111,195,13.7,27,139,102,80.5,121,98.3,31.8,77.7,160,
"O=C(Nc1ccccc1)c1cc([N+](=O)[O-])ccc1Cl + Cc1cc([N+](=O)[O-])ccc1NS(=O)(=O)c1cc(Cl)ccc1Cl [FH535] (first compound 2 µM, partner dose 1 µM)",261,75.1,77.4,33.7,26.9,46,97.7,580,73.7,97.3,119,82.8,89.4,77.2,
"CN(NC(=O)CC(=O)NN(C)C(=S)c1ccccc1)C(=S)c1ccccc1 + N#Cc1c(O)c2c(-c3ccc(-c4ccccc4O)cc3)csc2[nH]c1=O [A769662] (first compound 0.006 µM, partner dose 2 µM)",46.9,44.6,47,54.6,40.7,92.9,117,124,116,186,176,70.4,109,102,
"COC(=O)c1sccc1S(=O)(=O)Nc1ccc(Nc2ccccc2)cc1OC + O=C(O)C(=O)Nc1sc2c(c1C(=O)O)CCNC2 [TCS401] (first compound 1 µM, partner dose 1.66667 µM)",156,82.7,47,276,53.5,218,233,74.2,92,114,98.8,60.3,91.3,123,
"COc1ccc(COc2ccc(Cc3cnc(N)nc3N)cc2OC)cc1 + CC(C)CCN1c2nc(Nc3cc(F)c(O)c(F)c3)ncc2N(C)C(=O)C1C [BID1870] (first compound 1 µM, partner dose 0.2 µM)",46,71.5,20.4,88.1,92.2,38.2,76.9,48.4,108,56,87.2,128,62.2,53.1,
"CCCCCCCCCCCC1=C(O)C(=O)C=C(O)C1=O [Embelin] + O=c1cc(-c2cccc3c2Sc2ccccc2S3)oc(N2CCOCC2)c1 [KU55933] (first compound 1.2 µM, partner dose 1 µM)",114,97.2,261,81.2,27.3,35.2,210,139,68.4,137,135,70,90.5,83.2,
"O=S(=O)(c1ccccc1)N(CC(F)(F)F)c1ccc(C(O)(C(F)(F)F)C(F)(F)F)cc1 + CCCCCCCCCCCC1=C(O)C(=O)C=C(O)C1=O [Embelin] (first compound 1.4 µM, partner dose 1.2 µM)",132,177,299,138,72.1,72.9,61,103,105,74.6,111,86.1,84.2,245,
"CN(NC(=O)CC(=O)NN(C)C(=S)c1ccccc1)C(=S)c1ccccc1 + c1cc(-c2cnn3cc(-c4ccc(OCCN5CCCCC5)cc4)cnc23)ccn1 [Dorsomorphin] (first compound 0.006 µM, partner dose 0.4 µM)",72.5,95.6,83.9,134,108,95.8,255,85,332,117,191,146,161,55.4,
"NCC(=O)Nc1ccc(-n2nc(C(F)(F)F)cc2-c2ccc3c(ccc4ccccc43)c2)cc1 + O=c1cc(-c2cccc3c2Sc2ccccc2S3)oc(N2CCOCC2)c1 [KU55933] (first compound 1 µM, partner dose 1 µM)",166,37.1,41.9,88.1,78.4,155,84.1,188,119,105,88.3,321,77.9,100,
"COc1cc2ncnc(Nc3ccc(Oc4ccccc4)cc3)c2cc1OC + O=C1NC(=O)/C(=C/c2ccc(-c3ccc(F)cc3O)o2)S1 [AS252424] (first compound 2 µM, partner dose 1 µM)",97.7,47.5,60.8,81.9,64.6,55.7,160,54.7,121,79.4,126,70.9,87.9,102,
"CN(C)S(=O)(=O)c1ccc2c(c1)/C(=C/c1cc3c([nH]1)CCCC3)C(=O)N2 + CC(C)CCN1c2nc(Nc3cc(F)c(O)c(F)c3)ncc2N(C)C(=O)C1C [BID1870] (first compound 0.4 µM, partner dose 0.2 µM)",62.4,164,63.1,125,32.1,63,41.3,86.3,393,49,105,67,72.3,329,
"CCN(CC)CCCCNc1ncc2cc(-c3cc(OC)cc(OC)c3)c(NC(=O)NC(C)(C)C)nc2n1 + Cn1cc(/C=C2\C(=O)Nc3cccnc32)c2ccccc21 [GW441756] (first compound 0.1 µM, partner dose 0.4 µM)",99.4,87.5,73.5,167,31,268,31.3,57.2,145,159,264,78.5,80.9,103,
"COc1ccc2c(c1)CCC1C2CCC2(C)C(NCCCCCCN3C(=O)C=CC3=O)CCC12 (stereo unspecified) + CCN(CC)CCCCNc1ncc2cc(-c3cc(OC)cc(OC)c3)c(NC(=O)NC(C)(C)C)nc2n1 [PD173074] (first compound 0.4 µM, partner dose 0.1 µM)",111,116,106,272,77.5,118,44.4,45.9,71.6,63.3,121,73.6,83.2,60.4,
"O=C(Nc1ccccc1)c1cc([N+](=O)[O-])ccc1Cl + Oc1cc(-c2nc(-c3ccccc3)[nH]c2-c2ccncc2)ccc1Cl [L779450] (first compound 2 µM, partner dose 0.2 µM)",29.5,76.5,43.7,65.3,47.2,50.6,126,94.5,137,78.9,109,51.5,104,63.2,108
"O=C1NC(=O)/C(=C/c2ccc(-c3ccc(F)cc3O)o2)S1 + Cc1cc([N+](=O)[O-])ccc1NS(=O)(=O)c1cc(Cl)ccc1Cl [FH535] (first compound 1 µM, partner dose 1 µM)",117,77.7,58.4,280,45.4,70.3,211,131,250,175,111,138,86.8,63.7,
"O=C(Nc1ccccc1)c1cc([N+](=O)[O-])ccc1Cl + COc1ccc(-c2ccc3c(N4CCOCC4)nc(N4C[C@@H](C)O[C@@H](C)C4)nc3n2)cc1CO [KU0063794] (first compound 2 µM, partner dose 0.02 µM)",124,78.7,59.5,98.9,283,66,32,123,92,90.2,119,196,101,60.5,
"CCN(CC)CCCCNc1ncc2cc(-c3cc(OC)cc(OC)c3)c(NC(=O)NC(C)(C)C)nc2n1 + Oc1cc(-c2nc(-c3ccccc3)[nH]c2-c2ccncc2)ccc1Cl [L779450] (first compound 0.1 µM, partner dose 0.2 µM)",128,194,62.7,91.4,253,28.1,91.1,165,188,63.9,105,36.9,72,197,
"COC(=O)c1sccc1S(=O)(=O)Nc1ccc(Nc2ccccc2)cc1OC + COc1ccc(-c2ccc3c(N4CCOCC4)nc(N4C[C@@H](C)O[C@@H](C)C4)nc3n2)cc1CO [KU0063794] (first compound 1 µM, partner dose 0.02 µM)",159,88.3,114,164,27.5,29.5,140,116,53.5,110,105,67.1,190,106,
"O=C(O)C(=O)Nc1sc2c(c1C(=O)O)CCNC2 + COc1cc(N2CCC(N3CCN(C)CC3)CC2)ccc1Nc1ncc(Cl)c(Nc2ccccc2S(=O)(=O)C(C)C)n1 [NVP-TAE684] (first compound 1.66667 µM, partner dose 0.08 µM)",75.9,95.8,113,96.1,18.9,64,95.2,82.6,62.9,109,118,71.9,72.5,121,
"CCN(CC)CCCCNc1ncc2cc(-c3cc(OC)cc(OC)c3)c(NC(=O)NC(C)(C)C)nc2n1 + COc1cc(N2CCC(N3CCN(C)CC3)CC2)ccc1Nc1ncc(Cl)c(Nc2ccccc2S(=O)(=O)C(C)C)n1 [NVP-TAE684] (first compound 0.1 µM, partner dose 0.08 µM)",333,165,107,42,18.4,94.5,77.6,162,136,157,112,36.1,71.6,441,
"COc1cc2ncnc(Nc3ccc(Oc4ccccc4)cc3)c2cc1OC + CC(C)CCN1c2nc(Nc3cc(F)c(O)c(F)c3)ncc2N(C)C(=O)C1C [BID1870] (first compound 2 µM, partner dose 0.2 µM)",104,85.2,21.8,126,46.3,113,90,41.7,93.8,75.2,106,64.5,79,104,
"COc1ccc(-c2ccc3c(N4CCOCC4)nc(N4C[C@@H](C)O[C@@H](C)C4)nc3n2)cc1CO + Cc1cc([N+](=O)[O-])ccc1NS(=O)(=O)c1cc(Cl)ccc1Cl [FH535] (first compound 0.02 µM, partner dose 1 µM)",38.5,79.8,112,201,48.3,89.1,190,332,96.4,86,108,47.7,118,82.5,
"O=C(Nc1ccccc1)c1cc([N+](=O)[O-])ccc1Cl + O=S(=O)(c1ccccc1)N(CC(F)(F)F)c1ccc(C(O)(C(F)(F)F)C(F)(F)F)cc1 [T0901317] (first compound 2 µM, partner dose 1.4 µM)",185,75.1,85.2,200,117,36.1,68.1,44.7,53.4,98.2,125,35.4,112,84.7,

# Some entries already given with just cleaved PARP positive nuclei fraction (SkMel30) [%], cleaved PARP positive nuclei fraction (UACC62) [%] and cleaved PARP positive nuclei fraction (WM1745) [%]:
SMILES | cleaved PARP positive nuclei fraction (SkMel30) [%] | cleaved PARP positive nuclei fraction (UACC62) [%] | cleaved PARP positive nuclei fraction (WM1745) [%]
CCCCCCCCCCCC1=C(O)C(=O)C=C(O)C1=O [Embelin] + O=c1cc(-c2cccc3c2Sc2ccccc2S3)oc(N2CCOCC2)c1 [KU55933] (first compound 1.2 µM, partner dose 1 µM) | 27.3 | 139 | 135
O=S(=O)(c1ccccc1)N(CC(F)(F)F)c1ccc(C(O)(C(F)(F)F)C(F)(F)F)cc1 + CCCCCCCCCCCC1=C(O)C(=O)C=C(O)C1=O [Embelin] (first compound 1.4 µM, partner dose 1.2 µM) | 72.1 | 103 | 111
